Here are results for two substances from US7101854B2 (Sankt-Peterburgskaya Obschestvennaya Organizatsiya …, priority 2000, dated 2006).

*: point of attachment. Cbz = O=C(OCc1ccccc1)*; OBn = c1ccc(CO*)cc1

The data set in a line: general procedure: solution-phase peptide synthesis; N,N'-dicyclohexylcarbodiimide / N-oxybenzotriazol.

For the setting “coupling step”, Cbz-K(Cbz)E(OBn)D(OBn)A-OBn came in with a step yield of 64%.
The substance H-Lys-Glu-Asp-Ala-OH registered a step yield (late stage modification step) of 95%. Also, the “final HPLC purity” value (purification step, 220 nm) turned out to be 98.75%.
